# Reference: paper PMC3234234, “A Host Small GTP-binding Protein ARL8 Plays Crucial Roles in Tobamovirus RNA Replication” (PLoS Pathogens, 2011)
# Numbering of substitutions follows the chain as printed. No constants are given. Whether binding was seen depends on the method and setting. In cells and extracts the contact can be indirect. Here binding means that the protein was enriched with, or labelled near, the bait; the list need not be complete.
# B1: NtARL8a (Nicotiana tabacum ARL8a), endogenous (protein, UniProt H1AD87 1-184)
# chain: MGLWEAFLNWLRSLFFKQEMELSLIGLQNAGKTSLVNVIATGGYSEDMIPTVGFNMRKVTKGNVTIKLWDLGGQPRFRSMWERYCRAVSAIVYVVDAADHDNLSISKSELHDLLNKPSLSGIPLLVLGNKIDKPGALSKQALTDEMGLKSITDREVCCYMISCKNSTNIDSVIDWLVKHSKSKS
# B2: NtARL8b (Nicotiana tabacum ARL8b), endogenous (protein, UniProt H1AD88 1-184)
# chain: B1 chain with L3I, H100P, K107S, N115S, L137Q, E145Q
# B3: NtARL8c (Nicotiana tabacum ARL8c), endogenous (protein, UniProt H1AD89 1-184)
# chain: MGLWEALLNWLRSLFFQQEMELSLIGLQNAGKTSLVNVIATGGYSEDMIPTVGFNMRKVTKGNVTIKLWDLGGQPRFRSMWERYCRAVSAIVYVVDAADHDNVSISRSEIHDLLSKPSLNGIPLLVLGNKIDKPEALSKQALTDQMDLKSVTDREVCCYMISCKNSTNIDSVLDWLVKHSKSKS
# Biological target: FLAG-StrepII-tagged ToMV 180K replication protein (180K-FS) (Tomato mosaic virus)
# Experiment: affinity purification with mass spectrometry; 180K-FS purified with anti-FLAG antibody from LPC-solubilized membranes of ToMV-180FS-GFP-infected, evacuolated BY-2 protoplasts; SDS-PAGE, silver stain, band cut out, trypsin, LC-MS/MS, MASCOT
row,Binder,binding
1,B1,binds
2,B2,binds
3,B3,binds
